The source of these data is PubChem BioAssay AID1487 (National Center for Advancing Translational Sciences (NCATS), 2009).

A short description of this test: qHTS Assay for Modulators of Lamin A Splicing. The following applies: HeLa LMNA splicing GFP/RFP minigene ratio, 48 h. An outline of the steps:
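S3 HeLa cells stably expressing lamin A-EGFP splicing minigene plus DsRed2, 600 cells/well, 48 h compound exposure at 37C. Laser-scanning cytometry; analysed as GFP (500-530 nm)/RFP (575-640 nm) total intensity ratio; 0.5% DMSO vehicle.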

Setting [1] is: measured here: GFP splicing reporter channel.
The mark [2] stands for this setting: measured here: RFP viability control channel.

Molecules are shown by their SMILES. The list shows a part of the results. The main result of the screen is listed elsewhere. These columns were measured beside it and carry no call. Compounds called inactive in the main read-out are mostly missing here. Potencies come from curve fits of mixed quality, noted in brackets.

Take `COc1ccc(N2CCN(CCCNC(=O)C3COc4ccccc4C3)CC2)cc1` (configuration not stated): the AC50 (commonly the concentration at which the activity in the assay is half-maximal) by setting is: under setting [1], 11.2 µM [falling, partial curve, poor fit]; under setting [2], 15.8 µM [falling, partial curve, poor fit].

For `CCc1c(O)cc2n(c1=O)-c1ccc(Cl)cc1C2(C)C`, the AC50 is 6.31 µM [rising, partial curve] under setting [1] and 12.6 µM [rising, partial curve] under setting [2]. In the case of `O=C(Nc1nc2c(F)cc(F)cc2s1)c1ccc(S(=O)(=O)N2CCc3ccccc32)cc1`, the AC50 under setting [2] is 10 µM [rising, partial curve]. Same read-out and setting: under `Cc1ccc(C(=O)NC(=S)/C=C2\N(C)c3ccccc3C2(C)C)cc1` stands 35.5 µM [rising, single point]. `COc1ccc(S(=O)(=O)Nc2cc(C(=O)NCCC(C)C)ccc2N2CCOCC2)cc1`: the AC50 under setting [1] was 14.1 µM [rising, single point].

Regarding `O=C1C=CC(=O)c2c(O)c(Cl)c(Cl)c(O)c21`, the AC50 was 10 µM [falling, partial curve] under setting [1] and 7.94 µM [falling, partial curve] under setting [2]. As to `Oc1cccc(O)c1`, under setting [2], the AC50 is 1 µM [rising, partial curve, poor fit].

As for `CCC(=O)N1CCc2cc(S(=O)(=O)NCCC(=O)N3CC=C(c4ccccc4)CC3)ccc21`, the AC50 by setting is: under setting [1], 12.6 µM [rising, single point]; under setting [2], 12.6 µM [rising, partial curve]. With `CCOCCc1nn2c(=O)cc(COC(=O)c3ccccc3OC)nc2s1`, the AC50 under setting [1] was 0.02 µM [rising, full curve, poor fit]. Regarding `CC(=O)c1c(C)nn(CC(O)Cn2c3c(c4cc(C)ccc42)CCCC3=O)c1C` (configuration not stated), the AC50 under setting [2] was 22.4 µM [rising, partial curve, poor fit]. Still for that read-out and setting: under `O=C(N/N=C/c1ccc[nH]1)c1ccccc1O` stands 14.1 µM [rising, single point]. For `CCN1CCN(c2nc(N)c([N+](=O)[O-])c(Nc3ccc(C)cc3)n2)CC1`, the AC50 under setting [1] is 22.4 µM [rising, partial curve, poor fit] and the AC50 under setting [2] was 2.24 µM [rising, partial curve, poor fit]. Turning to `CCOC(=O)CSc1nc2ccccc2c(=O)n1CCCCCC(=O)NCc1ccco1`, the AC50 under setting [1] is 31.6 µM [rising, single point]. Regarding `O=C(CSc1n[nH]c(-c2cccnc2)n1)Nc1ccnc2ccccc12`, the AC50 under setting [2] was 17.8 µM [rising, single point].

`O=C(CSc1ccc2c(c1)OCCO2)Nc1ccc(Br)cc1`: under setting [2], the AC50 is 10 µM [rising, partial curve].

In the case of `CCN(C(=O)CSc1nc2ccc([N+](=O)[O-])cc2s1)C1CCS(=O)(=O)C1` (configuration not stated), the AC50 under setting [2] was 11.2 µM [rising, partial curve, poor fit].

`O=C(Nc1nnc(-c2ccccc2Cl)o1)c1ccc(S(=O)(=O)N2CCCCCC2)cc1`: the AC50 under setting [2] is 14.1 µM [rising, single point].

Regarding `OC(COCC1COc2ccccc2O1)CN1CCN(c2ccc(F)cc2)CC1` (configuration not stated), the AC50 under setting [2] is 12.6 µM [rising, single point]. Still for that read-out and setting: the figure for `Clc1ccc(OCCn2ccnc2)c2ccccc12` is 3.98 µM [rising, single point]. Still for that read-out and setting: under `O=C(Nc1ccc(F)cc1)NC1(C(=O)NCc2ccc3c(c2)OCO3)CCCCC1` stands 14.1 µM [rising, single point]. As for `COC(=O)COc1ccc(/C=C2/SC(=O)N(CC(=O)N3CCCC3)C2=O)cc1Br`, the AC50 under setting [1] is 14.1 µM [falling, single point] and the AC50 under setting [2] was 35.5 µM [falling, single point].

Take `COc1ccc(-c2noc(CSc3ccccc3)n2)cc1OC`: the AC50 under setting [2] is 31.6 µM [rising, single point]. Consider `CCOc1cc(/C=N\Nc2nc(Nc3ccccc3)nc(N3CCOCC3)n2)ccc1OC(=O)c1ccco1`, for which the AC50 under setting [2] was 10 µM [rising, partial curve].

In the case of `Oc1ccc(/C=N/N=C(c2ccccc2)c2ccccc2)c(O)c1O`, the AC50 under setting [2] was 35.5 µM [rising, single point].

Take `Cc1ccc(-c2cc(C(=O)Nc3nccs3)c3ccccc3n2)c(C)c1`: the AC50 under setting [2] was 14.1 µM [rising, partial curve, poor fit]. Turning to `COc1ccc(C(=O)C(CCC(CNC(C)(C)C)C(=O)c2ccc(OC)cc2)CNC(C)(C)C)cc1` (configuration not stated), the AC50 runs as follows: under setting [1], 11.2 µM [rising, partial curve]; under setting [2], 17.8 µM [rising, partial curve]. With `O=C(O)C(Cc1ccccc1)N1CCS(=O)(=O)CC1` (configuration not stated), the AC50 under setting [2] was 0.794 µM [falling, single point]. Same read-out and setting: the figure for `CCCCN(CCCC)C(=S)NC(=O)c1ccccc1Cl` is 20 µM [rising, single point].

As for `c1ccc(CNc2ccc3ccccc3n2)nc1`, the AC50 under setting [1] was 0.0501 µM [rising, full curve, poor fit].

As to `O=C(/C=C/c1ccccc1)c1cc(Br)ccc(=O)c1O`, the AC50 is, setting by setting: under setting [1], 35.5 µM [falling, single point]; under setting [2], 35.5 µM [falling, single point]. As for `Cc1ccc(CNC(=O)C(Cc2ccccc2)NS(=O)(=O)c2ccc(Br)s2)cc1` (configuration not stated), under setting [2], the AC50 is 35.5 µM [rising, single point]. For `Cc1cc(C)nc(N2CCCC(C(=O)Nc3ccc4nc(C)c(C)nc4c3)C2)n1` (configuration not stated), the AC50 runs as follows: under setting [1], 15.8 µM [rising, single point]; under setting [2], 12.6 µM [rising, single point]. As to `CN1/C(=C/C=C(C#N)C#N)C=Cc2ccccc21`, the AC50 was 0.0501 µM [rising, full curve, poor fit] under setting [1] and 0.398 µM [rising, full curve] under setting [2].

Take `O=c1c2ccccc2nc(N/N=C/c2c(O)ccc3ccccc23)n1O`: the AC50 is 7.94 µM [falling, partial curve] under setting [1] and 10 µM [rising, partial curve, poor fit] under setting [2]. For the molecule `Cc1ccc(S(=O)(=O)N2CCN(C(=O)c3cccs3)CC2)c(C)c1`, the AC50 under setting [1] is 0.501 µM [rising, full curve] and the AC50 under setting [2] was 0.562 µM [rising, full curve, poor fit]. Consider `COC(=O)CCC(=O)CN`, for which the AC50 under setting [1] is 0.355 µM [rising, full curve, poor fit]. Take `CCc1cccc(NC(=O)CSc2nc3c(c(=O)[nH]2)CCCC3)c1`: the AC50 under setting [2] is 12.6 µM [rising, partial curve, poor fit].

`COc1ccc(Cl)cc1NCc1nnc2n1CCCCC2`: the AC50 under setting [1] is 0.316 µM [rising, full curve, poor fit]. As for `COc1cccc(-c2nc(CS(=O)(=O)CC(=O)NC3CCCc4ccccc43)c(C)o2)c1` (configuration not stated), the AC50 reads like this: under setting [1], 4.47 µM [rising, single point]; under setting [2], 5.01 µM [rising, single point]. Regarding `CCn1cc(C(=O)NCc2ccco2)c(=O)c2cc(S(=O)(=O)N3CC(C)CC(C)C3)ccc21` (configuration not stated), the AC50 under setting [2] is 17.8 µM [rising, single point]. For `CC1(C)S[C@@H]2[C@H](NC(=O)C3(N)CCCCC3)C(=O)N2[C@H]1C(=O)O`, the AC50 is 0.708 µM [falling, partial curve, poor fit] under setting [1] and 1.26 µM [falling, partial curve, poor fit] under setting [2]. Consider `CCCN(CCC)C(=O)c1ccc2c(=O)n(Cc3ccco3)c(=S)[nH]c2c1`, for which the AC50 is 0.00447 µM [rising, full curve, poor fit] under setting [1] and 7.08 µM [rising, partial curve, poor fit] under setting [2]. `Cc1cc(N/N=C2/CCCc3ccccc32)nc2ccccc12`: the AC50 under setting [2] is 31.6 µM [falling, partial curve]. With `O=c1cc(-c2ccccc2)[nH]c2cc(F)ccc12`, the AC50 was 7.08 µM [rising, partial curve] under setting [1] and 5.01 µM [rising, full curve] under setting [2]. As for `Cc1ccc(C)c(NC(=O)CN2C(=O)CCc3cc(S(=O)(=O)N4CCCCC4)ccc32)c1`, the AC50 by setting is: under setting [1], 1 µM [falling, partial curve, poor fit]; under setting [2], 0.126 µM [falling, full curve, poor fit].

`C=CCn1c(C)cc(C(=O)CSc2nnc(Cc3ccccc3)o2)c1C`: the AC50 under setting [1] was 35.5 µM [rising, single point] and the AC50 under setting [2] was 35.5 µM [rising, single point]. As for `CC(=O)Nc1ccc(NC(=O)c2ccc3c(c2)N(Cc2cccc(Cl)c2)C(=O)c2ccccc2S3=O)cc1` (configuration not stated), the AC50 is, setting by setting: under setting [1], 3.55 µM [falling, full curve, poor fit]; under setting [2], 3.16 µM [falling, full curve, poor fit]. `COc1ccc(CCNCc2csc3nc4ccccc4n23)cc1OC`: the AC50 reads like this: under setting [1], 0.1 µM [rising, full curve, poor fit]; under setting [2], 0.794 µM [rising, full curve]. Turning to `Clc1cccc(N2CCN(Cc3nc(-c4ccccc4)no3)CC2)c1`, the AC50 under setting [2] is 35.5 µM [rising, single point].

Turning to `N/C(=N\OC(=O)COc1ccc2ccccc2c1)c1ccccn1`, the AC50 under setting [1] was 0.2 µM [falling, single point]. `CCc1ccc2c(CN3CCN(S(=O)(=O)c4ccc5c(c4)OCCO5)CC3)cc(=O)oc2c1`: the AC50 runs as follows: under setting [1], 12.6 µM [rising, partial curve]; under setting [2], 12.6 µM [rising, partial curve]. `COc1ccc(OC)c(S(=O)(=O)N2C(C)CCCC2C)c1` (configuration not stated): the AC50 under setting [2] is 15.8 µM [rising, single point]. As to `CCOc1ccccc1NC(=O)/C(C#N)=C/c1c(C)nn(-c2ccccc2)c1Cl`, the AC50 under setting [1] is 35.5 µM [rising, single point]. Turning to `C=CCNc1nc2c(c(=O)n(C)c(=O)n2C)n1Cc1ccc(F)cc1`, under setting [2], the AC50 was 35.5 µM [rising, single point]. On to `N#C/C(=C(/O)CSc1ncn[nH]1)c1nc2ccccc2[nH]1`, for which the AC50 is, setting by setting: under setting [1], 1 µM [falling, partial curve, poor fit]; under setting [2], 0.0794 µM [falling, full curve].
